Laboratory results from PubChem BioAssay AID248 (DTP/NCI, 2004).
The list does not hold the whole screen: it gathers tests that were run many times, whatever their T/C, doses with no T/C, and many T/C values between a quarter and a half above the control. Other doses and runs of a compound stand elsewhere. T/C is the treated group as % of the vehicle group. Some entries give survivors of the animals treated and no T/C: the source holds a T/C of zero for them, seemingly a mark for toxic or unscored doses. Some doses without a T/C left all or most animals alive at the check, yet need not have been tolerated: survival well below the control is almost never listed, so the zero probably covers shortened survival too. Counts of survivors are from the toxicity check (mostly the fifth day) where no day follows; animals may have died later. Schedule codes are those of the source, taken here to give the interval after Q, in days (D) or hours (H), and the number of doses after X. Some doses were run more than once; their values stand side by side, smallest first. Some schedule codes hold Z or #, which are not explained here. Additions like (4×) say how often a value occurs here. For survival time, this PubChem deposit counts one and a half times the control or more as active, and values a quarter to a half above the control carry no call in these data; other NCI protocols may use other cut-offs. Some T/C values are followed by the survivors on the day toxicity was checked, most often the fifth; without a count, all were alive then.

System: L1210 leukemia ip in BDF1 mice, survival T/C
Assay: NCI In Vivo Anticancer Drug Screen. Data for tumor model L1210 Leukemia (intraperitoneal) in B6D2F1 (BDF1) mice
Conditions: T/C endpoint: mean survival time, higher T/C = longer survival
[1] = dose: 50.0 mg/kg/injection, schedule: Q01DX005 (ip), vehicle: saline
[2] = dose: 50.0 mg/kg/injection, schedule: Q01DX009 (ip), vehicle: saline

Nc1nc(=S)c2ncn(C3OC(CO)C(O)C3O)c2[nH]1 (configuration not stated)
T/C (dose: 0.25 mg/kg/injection, schedule: Q01DX Z (ip), vehicle: carboxymethylcellulose (CMC)): 131 % of control
T/C (dose: 0.29 mg/kg/injection, schedule: Q01DX Z (ip), vehicle: saline): 130 % of control
T/C (dose: 0.4 mg/kg/injection, schedule: Q01DX009 (ip), vehicle: carboxymethylcellulose (CMC)): 134 % of control
T/C (dose: 0.44 mg/kg/injection, schedule: Q01DX Z (ip), vehicle: saline): 140 % of control
T/C (dose: 0.5 mg/kg/injection, schedule: Q01DX015 (ip), vehicle: carboxymethylcellulose (CMC), evaluated on day 46): 128 % of control
T/C (dose: 0.5 mg/kg/injection, schedule: Q01DX015 (ip), vehicle: carboxymethylcellulose (CMC), evaluated on day 60): 137 % of control
T/C (dose: 0.66 mg/kg/injection, schedule: Q01DX Z (ip), vehicle: saline): 143 % of control
T/C (dose: 0.75 mg/kg/injection, schedule: Q01DX005 (ip), vehicle: carboxymethylcellulose (CMC)): 148 % of control
T/C (dose: 0.75 mg/kg/injection, schedule: Q01DX015 (ip), vehicle: carboxymethylcellulose (CMC)): 139 % of control
T/C (dose: 0.75 mg/kg/injection, schedule: Q01DX Z (ip), vehicle: carboxymethylcellulose (CMC)): 125 and 137 % of control
T/C (dose: 0.78 mg/kg/injection, schedule: Q01DX Z (ip), vehicle: carboxymethylcellulose (CMC)): 146 % of control
T/C (dose: 1.0 mg/kg/injection, schedule: Q01DX015 (ip), vehicle: carboxymethylcellulose (CMC), evaluated on day 46): 140, 152, 165 % of control
T/C (dose: 1.0 mg/kg/injection, schedule: Q01DX015 (ip), vehicle: carboxymethylcellulose (CMC), evaluated on day 60): 163 % of control
T/C (dose: 1.0 mg/kg/injection, schedule: Q01DX015 (ip), vehicle: carboxymethylcellulose (CMC), run until all animals had died): 198 % of control
T/C (dose: 1.0 mg/kg/injection, schedule: Q01DX Z (ip), vehicle: carboxymethylcellulose (CMC)): 139 % of control
T/C (dose: 1.3 mg/kg/injection, schedule: Q01DX Z (ip), vehicle: carboxymethylcellulose (CMC)): 135 % of control
T/C (dose: 1.6 mg/kg/injection, schedule: Q01DX009 (oral), vehicle: carboxymethylcellulose (CMC)): 134 % of control
T/C (dose: 1.6 mg/kg/injection, schedule: Q01DX009 (sc), vehicle: carboxymethylcellulose (CMC)): 143 % of control
T/C (dose: 1.8 mg/kg/injection, schedule: Q02DX008 (ip), vehicle: carboxymethylcellulose (CMC)): 145 % of control
T/C (dose: 2.0 mg/kg/injection, schedule: Q01DX015 (ip), vehicle: other): 141 % of control
T/C (dose: 2.0 mg/kg/injection, schedule: Q01DX Z (ip), vehicle: carboxymethylcellulose (CMC)): 125 % of control
T/C (dose: 2.0 mg/kg/injection, schedule: Q01DX Z (ip), vehicle: saline): 132 % of control
T/C (dose: 2.0 mg/kg/injection, schedule: Q## X024 (ip), vehicle: carboxymethylcellulose (CMC)): 146 % of control
T/C (dose: 2.75 mg/kg/injection, schedule: Q## X003 (ip), vehicle: carboxymethylcellulose (CMC)): 148 % of control
T/C (dose: 2.8 mg/kg/injection, schedule: Q## X032 (ip), vehicle: carboxymethylcellulose (CMC)): 134 % of control
T/C (dose: 3.6 mg/kg/injection, schedule: Q01DX Z (ip), vehicle: carboxymethylcellulose (CMC)): 141 % of control
T/C (dose: 3.6 mg/kg/injection, schedule: Q01DX Z (oral), vehicle: carboxymethylcellulose (CMC)): 128 % of control
T/C (dose: 4.0 mg/kg/injection, schedule: Q01DX015 (ip), vehicle: carboxymethylcellulose (CMC)): 149 % of control
T/C (dose: 4.0 mg/kg/injection, schedule: Q01DX015 (ip), vehicle: other): 135 % of control
T/C (dose: 4.0 mg/kg/injection, schedule: Q01DX Z (ip), vehicle: carboxymethylcellulose (CMC)): 138 % of control
T/C (dose: 4.0 mg/kg/injection, schedule: Q01DX Z (ip), vehicle: saline): 127 % of control
T/C (dose: 4.0 mg/kg/injection, schedule: Q## X032 (ip), vehicle: carboxymethylcellulose (CMC)): 130 % of control
T/C (dose: 4.7 mg/kg/injection, schedule: Q01DX Z (ip), vehicle: saline): 137 % of control
T/C (dose: 6.0 mg/kg/injection, schedule: Q01DX Z (ip), vehicle: carboxymethylcellulose (CMC)): 130 % of control
T/C (dose: 6.4 mg/kg/injection, schedule: Q01DX009 (oral), vehicle: carboxymethylcellulose (CMC)): 148 % of control
T/C (dose: 9.4 mg/kg/injection, schedule: Q01DX Z (ip), vehicle: saline): 143 % of control
T/C (dose: 9.6 mg/kg/injection, schedule: Q## X032 (ip), vehicle: carboxymethylcellulose (CMC)): 148 % of control [8 of 10 alive]
T/C (dose: 10.0 mg/kg/injection, schedule: Q01DX Z (oral), vehicle: carboxymethylcellulose (CMC)): 128 % of control
T/C (dose: 10.0 mg/kg/injection, schedule: Q## X032 (ip), vehicle: carboxymethylcellulose (CMC)): 146 % of control [9 of 10 alive]
T/C (dose: 12.5 mg/kg/injection, schedule: Q01DX005 (ip), vehicle: saline): 127 and 140 % of control
T/C (dose: 13.3 mg/kg/injection, schedule: Q02DX008 (ip), vehicle: carboxymethylcellulose (CMC)): 143 % of control
T/C (dose: 20.0 mg/kg/injection, schedule: Q02DX008 (ip), vehicle: carboxymethylcellulose (CMC)): 149 % of control
T/C (dose: 22.0 mg/kg/injection, schedule: Q## X032 (ip), vehicle: carboxymethylcellulose (CMC)): 134 % of control
survivor count (dose: 25.0 mg/kg/injection, schedule: Q01DX009 (ip), vehicle: saline): 6 of 6
T/C (dose: 35.0 mg/kg/injection, schedule: Q01DX009 (ip), vehicle: saline): 143 % of control
T/C (dose: 36.0 mg/kg/injection, schedule: Q## X008 (ip), vehicle: carboxymethylcellulose (CMC)): 148 % of control
survivor count (dose: 37.5 mg/kg/injection, schedule: Q01DX009 (ip), vehicle: saline): 6 of 6
T/C (dose: 45.0 mg/kg/injection, schedule: Q01DX001 (oral), vehicle: carboxymethylcellulose (CMC)): 148 % of control
T/C (dose: 45.0 mg/kg/injection, schedule: Q01DX001 (sc), vehicle: carboxymethylcellulose (CMC)): 147 % of control
T/C [1]: 130 % of control
survivor count [1]: 6 of 6
T/C [2]: 126 and 136 % of control
survivor count [2]: 6 of 6
survivor count (dose: 64.0 mg/kg/injection, schedule: Q## X032 (ip), vehicle: carboxymethylcellulose (CMC)): 5 of 9
T/C (dose: 67.0 mg/kg/injection, schedule: Q02DX008 (ip), vehicle: carboxymethylcellulose (CMC)): 146 % of control
T/C (dose: 72.0 mg/kg/injection, schedule: Q## X008 (ip), vehicle: carboxymethylcellulose (CMC)): 137 % of control
survivor count (dose: 72.0 mg/kg/injection, schedule: Q## X016 (ip), vehicle: carboxymethylcellulose (CMC)): 10 of 10
survivor count (dose: 75.0 mg/kg/injection, schedule: Q01DX009 (ip), vehicle: saline): 6 of 6
survivor count (dose: 75.0 mg/kg/injection, schedule: Q01DX010 (ip), vehicle: saline): 6 of 6
survivor count (dose: 80.0 mg/kg/injection, schedule: Q01DX Z (oral), vehicle: carboxymethylcellulose (CMC)): 3 of 6
T/C (dose: 90.0 mg/kg/injection, schedule: Q## X003 (oral), vehicle: carboxymethylcellulose (CMC)): 148 % of control
T/C (dose: 95.0 mg/kg/injection, schedule: Q01DX001 (ip), vehicle: carboxymethylcellulose (CMC)): 149 % of control
survivor count (dose: 96.0 mg/kg/injection, schedule: Q## X032 (ip), vehicle: carboxymethylcellulose (CMC)): 5 of 10
survivor count (dose: 100.0 mg/kg/injection, schedule: Q01DX005 (ip), vehicle: saline): 2 of 6 and 6 of 6
T/C (dose: 100.0 mg/kg/injection, schedule: Q01DX009 (ip), vehicle: saline): 141 % of control [5 of 6 alive]
T/C (dose: 144.0 mg/kg/injection, schedule: Q01DX001 (ip), vehicle: carboxymethylcellulose (CMC)): 147 % of control
survivor count (dose: 144.0 mg/kg/injection, schedule: Q## X008 (ip), vehicle: carboxymethylcellulose (CMC)): 10 of 10
survivor count (dose: 144.0 mg/kg/injection, schedule: Q## X016 (ip), vehicle: carboxymethylcellulose (CMC)): 10 of 10
survivor count (dose: 144.0 mg/kg/injection, schedule: Q## X032 (ip), vehicle: carboxymethylcellulose (CMC)): 5 of 10
survivor count (dose: 150.0 mg/kg/injection, schedule: Q01DX009 (ip), vehicle: saline): 3 of 6 and 5 of 6
survivor count (dose: 150.0 mg/kg/injection, schedule: Q01DX010 (ip), vehicle: saline): 5 of 6 and 6 of 6
T/C (dose: 180.0 mg/kg/injection, schedule: Q01DX001 (oral), vehicle: carboxymethylcellulose (CMC)): 139 and 144 % of control
T/C (dose: 180.0 mg/kg/injection, schedule: Q01DX001 (sc), vehicle: carboxymethylcellulose (CMC)): 132 % of control
T/C (dose: 180.0 mg/kg/injection, schedule: Q## X003 (oral), vehicle: carboxymethylcellulose (CMC)): 128 % of control
survivor count (dose: 200.0 mg/kg/injection, schedule: Q01DX005 (ip), vehicle: saline): 3 of 6 (2×) and 5 of 6
T/C (dose: 215.0 mg/kg/injection, schedule: Q01DX001 (ip), vehicle: carboxymethylcellulose (CMC)): 129 and 137 % of control
survivor count (dose: 216.0 mg/kg/injection, schedule: Q## X032 (ip), vehicle: carboxymethylcellulose (CMC)): 3 of 10
survivor count (dose: 288.0 mg/kg/injection, schedule: Q## X008 (ip), vehicle: carboxymethylcellulose (CMC)): 7 of 10
survivor count (dose: 288.0 mg/kg/injection, schedule: Q## X016 (ip), vehicle: carboxymethylcellulose (CMC)): 9 of 10
survivor count (dose: 300.0 mg/kg/injection, schedule: Q01DX010 (ip), vehicle: saline): 0 of 6
survivor count (dose: 322.0 mg/kg/injection, schedule: Q01DX001 (ip), vehicle: carboxymethylcellulose (CMC)): 8 of 10
survivor count (dose: 324.0 mg/kg/injection, schedule: Q## X032 (ip), vehicle: carboxymethylcellulose (CMC)): 1 of 10
survivor count (dose: 360.0 mg/kg/injection, schedule: Q01DX001 (ip), vehicle: carboxymethylcellulose (CMC)): 10 of 10
T/C (dose: 360.0 mg/kg/injection, schedule: Q01DX001 (oral), vehicle: carboxymethylcellulose (CMC)): 143 and 144 % of control
survivor count (dose: 484.0 mg/kg/injection, schedule: Q01DX001 (ip), vehicle: carboxymethylcellulose (CMC)): 6 of 10
survivor count (dose: 600.0 mg/kg/injection, schedule: Q01DX001 (ip), vehicle: carboxymethylcellulose (CMC)): 3 of 10
T/C (dose: 190.0 micrograms/kg/injection, schedule: Q01DX Z (ip), vehicle: saline): 136 % of control
